In publication doi:10.1101/2021.02.18.431627 (bioRxiv, 2021):
No constants are given. Whether binding was seen depends on the method and setting. Some entries that bind do so weakly or less than the wild type. Where a sequence is shown, tags or fusion partners need not be part of it.

Biological target: T1, GlyR-α3L-eGFP (glycine receptor α3, long splice variant L, N-terminally tagged with eGFP) (mouse) (UniProt Q91XP5)
T1 sequence: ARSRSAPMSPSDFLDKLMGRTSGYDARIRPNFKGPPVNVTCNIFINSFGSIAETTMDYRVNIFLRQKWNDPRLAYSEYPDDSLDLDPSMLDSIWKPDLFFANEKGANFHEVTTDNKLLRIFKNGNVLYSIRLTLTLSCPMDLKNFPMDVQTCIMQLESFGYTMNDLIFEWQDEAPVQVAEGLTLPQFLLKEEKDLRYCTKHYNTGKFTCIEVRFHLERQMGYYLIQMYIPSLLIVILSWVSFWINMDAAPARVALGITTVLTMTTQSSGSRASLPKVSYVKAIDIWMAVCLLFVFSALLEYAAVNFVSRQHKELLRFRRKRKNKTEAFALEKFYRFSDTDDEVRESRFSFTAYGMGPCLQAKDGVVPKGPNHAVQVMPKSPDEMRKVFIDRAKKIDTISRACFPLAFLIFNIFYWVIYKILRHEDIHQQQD
Assay: dual-colour temporal image cross-correlation spectroscopy

B1: GlyR-α3L-eGFP (glycine receptor α3, long splice variant L, N-terminally tagged with eGFP) (receptor, mouse, UniProt Q91XP5 34-464, looked up)
chain: T1 sequence
  binding: binds
